ChEMBL document CHEMBL1121430, “Bicyclic and tricyclic ergoline partial structures. Rigid 3-(2-aminoethyl)pyrroles and 3- and 4-(2-aminoethyl)pyrazoles as dopamine agonists” (1980)

What was measured:
Rattus norvegicus [1] = experiment: Tested for lowering of serum prolactin level in reserpinized rat after i.p. administration at dosage of 0.05 mg/kg; type: functional; settings: route intraperitoneal
Rattus norvegicus [2] = experiment: Tested for lowering of serum prolactin level in reserpinized rat after i.p. administration at dosage of 0.5 mg/kg; type: functional; settings: route intraperitoneal

SMILES: CCCN1CCC[C@@H]2Cc3n[nH]cc3CC21.Cl.Cl (some centres not stated)
- Inhibition (Rattus norvegicus [1]): 12.3 ng/mL
- Serum level (Rattus norvegicus [2]): 7.7 ng/mL
